In patent US20070167509A1, “Use of phenserine and analogs to treat behavioral problems and improve trainability” (priority 2005, published 2007):
For at least one compound, name, drawing or mass did not settle the structure.

What was measured:
Format in all cases: in vivo
aged beagle dogs [1] = assay: galantamine study of cognitive performance following scopolamine treatment; conditions: 10 aged dogs, doses of 2.5, 5 and 10 mg following scopolamine treatment
middle-aged beagle dogs = assay: delayed-non-matching-to-sample task (DNMS), recognition memory; conditions: 0.5 mg/kg via capsule in a meatball, tested 1 hour after administration, 20 test sessions; p=0.074
Protocol: The present study assessed the effects of a 0.5 mg/kg dose of phenserine in middle-aged dogs tested on a recognition memory task.
Six middle-aged beagle dogs (4 female and 2 male) served as subjects. Dogs were divided equally into 2 groups matched for performance on their most recent 10 sessions on the delayed-non-matching-to-sample task (DNMS; (Callahan et al., 2000). One group was administered phenserine (0.5 mg/kg) via capsule in a meatball and the second group served as control. Animals were tested one-hour after drug administration and were tested on a total of 20 test sessions.
To examine the effects of phenserine on DNMS performance, mean performance over groups of five test sessions was analyzed (see e.g., FIG. 1).

senior beagle dogs = assay: variable-delay DNMP under scopolamine / saline challenge
Protocol: Following relearning of the DNMP, dogs were tested on a variable-delay paradigm in which delays of 20 and 80 s were used. The delays occurred equally among the trials in a daily test session. We have previously shown that the 15-μg/kg dose selectively impairs DNMP performance (Araujo et al., 2004a). The dogs were first divided into two groups, one that was administered phenserine and the other received a placebo control. All subjects were given a 5-day stabilization period and then tested under scopolamine (15 μg/kg, SC) and saline (SC), administered 45 min prior to testing, over two test days separated by a treatment washout day. One day following the second treatment day, animals were removed from phenserine or placebo treatments and re-tested on the stabilization days and under scopolamine and saline treatment as indicated above.

aged beagle dogs [2] = assay: oddity discrimination learning (ODD1, ODD2)

| Structure (SMILES) | reversal of scopolamine deficits in cognitive performance (aged beagle dogs [1]) | DNMS performance, last 5-session block compared to the first (middle-aged beagle dogs) | DNMP performance at the 80- vs. 20-s delay under the saline condition (senior beagle dogs; during phenserine 0.5 mg/kg, saline SC) | DNMP performance at the 80-s delay after treatment with scopolamine (senior beagle dogs; during phenserine 0.5 mg/kg, scopolamine 15 μg/kg SC) | DNMP performance accuracy at the 20-s delay under scopolamine, phenserine vs placebo group (senior beagle dogs; during phenserine 0.5 mg/kg, scopolamine 15 μg/kg SC 45 min prior to testing, p=0.031) | DNMP delay-dependent performance (80-s vs 20-s) after phenserine discontinued (senior beagle dogs; subjects previously receiving phenserine, p=0.015) | DNMP performance at the 20-s delay under scopolamine after phenserine discontinued (senior beagle dogs; subjects previously receiving phenserine, scopolamine 15 μg/kg SC, p=0.0086) | errors-to-criterion on ODD1, phenserine vs placebo (aged beagle dogs [2]; 0.5 mg/kg in capsule 1 hour prior to testing, easier oddity problem) | errors on ODD2, phenserine vs control (aged beagle dogs [2]; 0.5 mg/kg, more difficult oddity problem, p=0.04) | errors on ODD2 compared to ODD1 within the phenserine groups (aged beagle dogs [2]; 0.5 mg/kg, placebo groups showed an increase in errors) |
| --- | --- | --- | --- | --- | --- | --- | --- | --- | --- | --- |
| COc1ccc2c3c1O[C@H]1C[C@@H](O)C=C[C@@]31CCN(C)C2 [Galantamine, galantamine] | unable to reverse the scopolamine deficits |  |  |  |  |  |  |  |  |  |
| CN1CC[C@@]2(C)c3cc(OC(=O)Nc4ccccc4)ccc3N(C)[C@@H]12 [phenserine, (−)-phenylcarbamoyleseroline] |  | trend for improved performance | not impaired | decreased performance | attenuated the scopolamine-induced performance deficit | did show delay-dependent deficits | did not show a scopolamine-induced performance deficit | No differences | significantly fewer errors | No differences were found |
